We go through two molecules from publication PMC7948496.

Amino acid sequences for entries named in this document (tags omitted).
UniProt Q02248: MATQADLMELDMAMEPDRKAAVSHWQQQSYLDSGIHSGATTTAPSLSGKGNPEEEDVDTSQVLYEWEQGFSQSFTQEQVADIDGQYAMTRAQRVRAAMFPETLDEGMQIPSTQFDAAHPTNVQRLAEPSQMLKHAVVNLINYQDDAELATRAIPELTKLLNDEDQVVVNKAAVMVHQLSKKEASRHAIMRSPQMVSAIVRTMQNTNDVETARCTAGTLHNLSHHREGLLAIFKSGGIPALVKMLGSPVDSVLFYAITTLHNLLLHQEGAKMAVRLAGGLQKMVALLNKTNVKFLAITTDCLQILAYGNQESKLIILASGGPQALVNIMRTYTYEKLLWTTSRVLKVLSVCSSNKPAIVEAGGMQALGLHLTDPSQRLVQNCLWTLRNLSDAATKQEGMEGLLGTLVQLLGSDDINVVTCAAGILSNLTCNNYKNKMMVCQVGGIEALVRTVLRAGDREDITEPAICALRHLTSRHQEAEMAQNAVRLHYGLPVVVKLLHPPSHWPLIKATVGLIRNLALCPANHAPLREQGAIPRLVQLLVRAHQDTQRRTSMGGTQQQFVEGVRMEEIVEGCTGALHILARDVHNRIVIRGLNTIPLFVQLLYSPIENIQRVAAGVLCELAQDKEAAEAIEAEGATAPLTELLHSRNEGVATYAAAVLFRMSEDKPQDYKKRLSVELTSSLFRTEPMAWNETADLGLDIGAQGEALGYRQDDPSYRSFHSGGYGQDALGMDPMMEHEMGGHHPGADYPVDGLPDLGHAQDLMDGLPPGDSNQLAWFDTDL

Holding throughout (experiment): co-IP; in HepG2, Huh-7 and Hepa1-6 cells; which protein was precipitated is not told; as described previously (ref. 38)
Assay [1] has as its target T1, TCF4, in HepG2 and Huh-7 cells (human (in HepG2 and Huh-7 cells; the plasmids too are of HepG2 cDNA)), Q9NQB0.
T1 chain: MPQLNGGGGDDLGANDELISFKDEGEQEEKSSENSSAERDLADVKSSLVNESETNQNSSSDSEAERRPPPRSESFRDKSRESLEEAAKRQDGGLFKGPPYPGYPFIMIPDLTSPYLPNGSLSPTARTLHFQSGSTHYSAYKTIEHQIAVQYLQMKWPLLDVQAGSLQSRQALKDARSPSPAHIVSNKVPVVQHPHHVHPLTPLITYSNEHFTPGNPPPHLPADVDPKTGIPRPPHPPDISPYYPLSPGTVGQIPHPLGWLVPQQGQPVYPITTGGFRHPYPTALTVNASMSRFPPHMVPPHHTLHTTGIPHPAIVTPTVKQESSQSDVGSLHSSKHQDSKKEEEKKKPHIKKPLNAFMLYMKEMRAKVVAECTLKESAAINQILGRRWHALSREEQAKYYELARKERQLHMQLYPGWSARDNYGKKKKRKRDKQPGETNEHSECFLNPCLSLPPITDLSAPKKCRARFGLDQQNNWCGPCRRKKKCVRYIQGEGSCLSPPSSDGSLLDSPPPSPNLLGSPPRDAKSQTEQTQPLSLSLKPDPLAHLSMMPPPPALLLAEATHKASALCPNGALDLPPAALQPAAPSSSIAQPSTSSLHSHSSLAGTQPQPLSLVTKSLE
To be noted: remark: other sources report otherwise.

For assay [2], the target named is TCF4, in Hepa1-6 cells (not stated (mouse if endogenous in Hepa1-6; the paper's plasmids are of human HepG2 cDNA)) (UniProt Q924A0).
Assay [3] concerns the target β-catenin, in Hepa1-6 cells (not stated (mouse if endogenous in Hepa1-6; the paper's plasmids are of human HepG2 cDNA)) (UniProt Q02248).

Results are given in words; binding and its absence hold for the method and conditions named. Binding seen in cells or lysates may run through a third protein. Some results given as binding are weak or reduced against the parent protein; the word gives no strength. For part of these data: Where a sequence is shown, tags or fusion partners need not be part of it.

B1: Histone lysine demethylase 4D (JMJD2D), in HepG2 and Huh-7 cells, Q6B0I6 1-523 (enzyme)
chain: METMKSKANCAQNPNCNIMIFHPTKEEFNDFDKYIAYMESQGAHRAGLAKIIPPKEWKARETYDNISEILIATPLQQVASGRAGVFTQYHKKKKAMTVGEYRHLANSKKYQTPPHQNFEDLERKYWKNRIYNSPIYGADISGSLFDENTKQWNLGHLGTIQDLLEKECGVVIEGVNTPYLYFGMWKTTFAWHTEDMDLYSINYLHLGEPKTWYVVPPEHGQRLERLARELFPGSSRGCGAFLRHKVALISPTVLKENGIPFNRITQEAGEFMVTFPYGYHAGFNHGFNCAEAINFATPRWIDYGKMASQCSCGEARVTFSMDAFVRILQPERYDLWKRGQDRAVVDHMEPRVPASQELSTQKEVQLPRRAALGLRQLPSHWARHSPWPMAARSGTRCHTLVCSSLPRRSAVSGTATQPRAAAVHSSKKPSSTPSSTPGPSAQIIHPSNGRRGRGRPPQKLRAQELTLQTPAKRPLLAGTTCTASGPEPEPLPEDGALMDKPVPLSPGLQHPVKASGCSWAPVP
Take B1: the binding result in assay [1] is recorded as “binds”.

B2: JMJD2D, in Hepa1-6 cells (enzyme, UniProt Q3U2K5 1-510)
chain: MKTKSTCAQNPNCSIMIFRPTKEEFNDFDKYIAYMESQGAHRAGLAKVIPPKEWRARQSYDNISNILIATPLQQVVSGQAGVFTQYHKKKKGMTVGEYRELANSKKYQTPPHLDFEDLERKYWKNRLYESPIYGADVSGSLFDGKTQQWNVGHLGTIQDLLEQECGIVIEGVNTPYLYFGMWKTTFAWHTEDMDLYSINYLHFGQPKTWYAVPPEHGRRLERLARELFPGSSQGCQAFLRHKVALISPTVLKENGIPFGRITQEAGEFMVTFPYGYHAGFNHGFNCAEAINFATPRWIDYGKVASQCSCGEARVSFSMDAFVRILQPERYELWKRGQDQAVVDHTETMVSTSQELTTRRVTKAPRKTWGLKRLRLRQVSRSLLPIATVSNVPCNMQVCHTSRQPSDVKGDDVQKSDSARASPHPLSLPSSGHMSTRRCSLGRRPCELGAQESSNGAPVKRQLPAGRDDTSPSPELQPQAVSGDLIVDSGLVNPGPQHLMTASEGGLTSDP
Consider B2, for which the binding entry in assay [2] and in assay [3] was “binds” each time.
